Laboratory results as given in patent US20240083999A1.
Numbering of substitutions follows the chain as printed. Results are given in words; binding and its absence hold for the method and conditions named. Some entries that bind do so weakly or less than the wild type. Blank lines part the entries; values can stand above or below the binder they belong to.

Sequences of proteins named here, by UniProt entry; tags and fusion partners are left off. A change or cut given only in a name is not applied to a line headed by its entry.
UniProt P05231: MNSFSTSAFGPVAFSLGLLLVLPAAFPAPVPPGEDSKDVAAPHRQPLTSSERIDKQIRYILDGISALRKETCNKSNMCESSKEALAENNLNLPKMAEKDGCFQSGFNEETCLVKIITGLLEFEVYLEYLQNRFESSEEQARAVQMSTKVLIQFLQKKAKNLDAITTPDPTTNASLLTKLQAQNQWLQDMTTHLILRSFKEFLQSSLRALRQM

Target: human interleukin 6 (hIL-6) (human) (UniProt P05231)
Test: re-screening of the VHH-display library for hIL-6 binding

B1: XAX-C9 (VHH)
VHH: SGGGLVQPGGSLRLSCAASGFTLDYYAIGWFRQAPGKEREGVSCLSSSDRSTYYVDSVKGRFTISRDDDKNTAYLQMNSLKPEDTATYYCAAGTWDLKWGYNISACVGSYEYDYWGQGTQVTVSS
binding: binds

B3: JYK-A8 (VHH)
VHH: B1 VHH with T52A, Y54A, V55I, D68G, D69A, A73V, T87V, G108R
binding: binds

B5: JYK-G1 (VHH)
VHH: SGGGLVQPGGSLRLSCAASGFTLDYYAVGWFRQAPGKEREGISCISSSDLKTYYTDSVKGRFTISRDNANNAVSLQMNSLKPEDTGVYYCAAGTWDLKFGYNISACVGSYEYDYWGQGTQVTVSS
binding: binds

B6: XAX-G8 (VHH)
VHH: B5 VHH with T55A, N70K, N71S, A72T
binding: binds

B7: JYK-G10 (VHH)
VHH: B5 VHH with T22A, T55A, N70K, N71S, A72T
binding: binds

B8: XAX-E6 (VHH)
VHH: B5 VHH with S1T
binding: binds

B9: JYK-F6 (VHH)
VHH: B5 VHH with S1T, T55A, N68Y, N70K, N71S, A72T
binding: binds

B11: XAX-B7 (VHH)
VHH: TGGGLVQPGGSLRLSCAASGFTLDYYGIGWFRQAPGKEREGVSCMSSSDLKTYYADSVKGRFTISRDSAKNTVYLQMNSLKPEDTGVYYCAAGTWDLKFGYNITTCVRSSEYDYRGQGTQVTVSS
binding: binds

B14: XAX-C2 (VHH)
VHH: TGGGGLVQPGGSLRLSCAASGFTLDYYGIGWFRQAPGKEREGVSCISSSDWSTYYADSVKGRFTISRDNAKNTVYLQMNSLKPEDTAVYYCAAGTWDLKFGYNRSNCVRSAEYDYWGQGTQVTVSS
binding: binds

Continued, values first:

binding: binds
B2: XAX-H9 (VHH)
VHH: B1 VHH with S1T

binding: binds
B4: XAX-H12 (VHH)
VHH: B1 VHH

binding: binds
B10: hIL-6-binding VHH JYK-A1 (Trx/JYK-A1/E) (VHH, not shown: large carriers)
VHH: QLQLAETGGGLVQPGGSLRLSCAASGFTLDYYAVGWFRQAPGKEREGISCISSSDLKTYYADSVKGRFTISRDYAKSTVSLQMNSLKPEDTGVYYCAAGTWDLKFGYNISACVGSYEYDYWDQGTQVTVSS

binding: binds
B12: XAX-H5 (VHH)
VHH: B11 VHH with L23S

binding: binds
B13: hIL-6-binding VHH JYK-H9 (Trx/JYK-H9/E) (VHH, not shown: large carriers)
VHH: QLQLVETGGGLVQPGGSLRLSCAASGFTLDYYAIGWFRQAPGKEREGVSCLSSSDRSTYYVDSVKGRFTISRDDDKNTAYLQMNSLKPEDTATYYCAAGTWDLKWGYNISACVGSYEYDYWGQGTQVTVSS
